# Measured values from publication PMC8017931.
# These are yes or no findings as the source states them, for the method shown. Binding seen in cells or lysates may run through a third protein. These calls come from enrichment with a bait or labelling near it, and not all partners need be listed. Tags and fused reporters may be left off the sequences shown.
# T1: FLAG-tagged ARMC12 from Armc12-FLAG knock-in mice (mouse) (UniProt Q80X86)
# T1 sequence: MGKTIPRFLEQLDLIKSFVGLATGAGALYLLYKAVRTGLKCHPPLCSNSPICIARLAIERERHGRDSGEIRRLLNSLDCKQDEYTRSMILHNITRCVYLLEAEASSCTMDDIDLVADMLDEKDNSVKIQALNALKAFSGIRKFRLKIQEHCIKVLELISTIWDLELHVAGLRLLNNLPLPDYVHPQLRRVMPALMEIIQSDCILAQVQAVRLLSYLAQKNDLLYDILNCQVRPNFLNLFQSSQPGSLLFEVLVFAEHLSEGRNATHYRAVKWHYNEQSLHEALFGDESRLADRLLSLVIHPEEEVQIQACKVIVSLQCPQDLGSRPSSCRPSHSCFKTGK
# B1: GK2 (protein, UniProt Q9WU65 1-554)
# chain: MAASKQTSAGPLVGAVVQGTNSTRFLVFNSKTAELVCSHQVELTQEYPKEGWVEQDPKEILKSVYECIAKACEKLAEVNIDISNIKAIGVSNQRETTVVWDKFTGDPLYNAVVWLDLRTQSTVETLTKKIPGNSNFVKSKTGLPLSTYFSAVKLRWMLDNLRPIQKAVEEGRAMFGTIDSWLIWCMTGGVNGGIHCTDVTNACRTMLFNIHSLEWDKDLCDFFEIPMSILPNVCSSSEIYGLMTSGALEGVPISGCLGDQSAALVGQMCFHEGQAKNTYGTGCFLLCNTGQKCVFSEHGLLTTLAYKLGKNKPVFYALEGSVAIAGAVIRWLRDNFEIITTSGEVENLAREVGTSYGCYFVPAFSGLYAPYWEPSARGIICGLTQFTNKCHIAFAALEAVCFQTREILDAMNRDCGIPLSHLQVDGGMTNNRILMQLQADILHIPVVKSVMPETTALGAAMAAGAAEGVNVWSLEPEDLSTILMERYEPQIQATESEIRFSTWKRAVMKSMGWVTAKDPENGDNPVFSCLPLGFFIVSSMTLLIGARCVSTAEE
# Target: T1, FLAG-tagged ARMC12 from Armc12-FLAG knock-in mice (mouse)
# Assay: affinity purification with mass spectrometry; mitochondria isolated from WT or FLAG-tagged Armc12 KI testis; extracted proteins immunoprecipitated with anti-FLAG antibody and identified by MS
binder,measurement,value
B1,binding,binds
